No constants are given. Whether binding was seen depends on the method and setting. Some binding calls cover weakened binding; strength is not graded here.
Assays:
[1] = target: Escherichia coli DNA gyrase subunit A (GyrA) (Escherichia coli) (UniProt P0AES4); experiment: cryo-EM structure; Gyr-Mu217-MFX: as Gyr-Mu217 but with moxifloxacin (50 µM in the dialysis buffer, then 100 µM, 37 °C for 15 min); DNA cleaved; both purified
[2] = target: Escherichia coli DNA gyrase subunit A (GyrA) (Escherichia coli) (UniProt P0AES4); experiment: cryo-EM structure; Gyr-Mu217: GyrA and GyrB with equimolar 217 bp Mu217 DNA, no nucleotide, no drug; dialysed at 4 °C into 25 mM Na-HEPES pH 8, 30 mM potassium acetate, 2.5 mM magnesium acetate, 0.5 mM TCEP; 8 mM CHAPSO added before freezing; both purified

Chains of the proteins cited; added tags and fusions are not shown.
UniProt P0AES4: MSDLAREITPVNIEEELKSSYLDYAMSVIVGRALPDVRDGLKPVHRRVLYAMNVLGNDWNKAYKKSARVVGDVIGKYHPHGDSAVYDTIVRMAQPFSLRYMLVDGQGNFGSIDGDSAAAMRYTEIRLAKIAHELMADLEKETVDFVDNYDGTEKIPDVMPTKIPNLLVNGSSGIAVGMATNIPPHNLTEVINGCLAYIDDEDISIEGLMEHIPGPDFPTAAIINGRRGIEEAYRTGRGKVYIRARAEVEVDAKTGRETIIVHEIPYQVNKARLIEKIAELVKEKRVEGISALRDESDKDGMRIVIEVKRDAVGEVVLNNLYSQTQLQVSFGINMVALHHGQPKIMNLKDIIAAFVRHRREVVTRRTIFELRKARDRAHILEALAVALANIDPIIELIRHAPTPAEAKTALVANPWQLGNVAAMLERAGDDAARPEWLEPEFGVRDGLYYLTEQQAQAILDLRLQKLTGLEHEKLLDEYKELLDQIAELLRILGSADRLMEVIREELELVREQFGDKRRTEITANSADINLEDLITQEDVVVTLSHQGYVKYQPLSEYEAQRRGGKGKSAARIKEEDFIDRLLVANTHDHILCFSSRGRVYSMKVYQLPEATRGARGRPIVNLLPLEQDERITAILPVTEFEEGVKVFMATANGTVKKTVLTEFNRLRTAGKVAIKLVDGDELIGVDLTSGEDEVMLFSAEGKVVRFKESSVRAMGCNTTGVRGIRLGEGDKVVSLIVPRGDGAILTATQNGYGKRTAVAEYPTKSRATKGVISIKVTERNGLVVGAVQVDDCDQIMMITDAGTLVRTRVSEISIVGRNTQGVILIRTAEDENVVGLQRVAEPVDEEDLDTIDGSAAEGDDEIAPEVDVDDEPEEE

binding [1]: binds
binding [2]: binds
Substance: Escherichia coli DNA gyrase subunit A (GyrA) (from UniProt P0AES4 1-875) (enzyme; other documents disagree on this pair)
